Hit rate of the full screen: of about 150,000 compounds, about 6,500 (4.3%) were called active. About 12% were inconclusive and are not listed. Calls follow the shape of the dose curve; as a rule, active = well fitted inhibition curve with a large enough effect (not every such curve was filed as active); inconclusive = small, poorly fitted or top-dose-only effect, or another doubt; inactive = no such curve, though single readings can be large or run the other way. The list shows a part of the results.
These compounds were tested against T1, 15-hydroxyprostaglandin dehydrogenase [NAD(+)], Homo sapiens (UniProt P15428) (assay: qHTS Assay for Inhibitors of HPGD (15-Hydroxyprostaglandin Dehydrogenase)).
T1 sequence (whole entry): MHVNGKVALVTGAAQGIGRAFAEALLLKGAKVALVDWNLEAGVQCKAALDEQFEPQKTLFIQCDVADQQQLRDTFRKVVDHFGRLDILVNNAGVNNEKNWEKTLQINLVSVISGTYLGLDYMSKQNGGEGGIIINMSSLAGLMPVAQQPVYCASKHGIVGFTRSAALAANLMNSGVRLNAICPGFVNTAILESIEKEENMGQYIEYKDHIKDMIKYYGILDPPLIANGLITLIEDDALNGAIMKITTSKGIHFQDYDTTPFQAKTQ
For `O=C(O)c1cc(-c2ccc(F)cc2F)ccc1O`, the outcome was “inactive”.
